{"source": "patent US7399789B2", "about": "“Bone targeting compounds for delivering agents to bone for interaction therewith” (University of Louisville Research Foundation, priority 2003, dated 2008)", "origin": "cited, not measured here", "conditions": "stated as known", "note": "At least one structure is not confirmed: it was looked up by name or label, or the drawing left a doubt."}
{"smiles": "CN(C)[C@@H]1C(O)=C(C(N)=O)C(=O)[C@@]2(O)C(O)=C3C(=O)c4c(O)cccc4[C@@](C)(O)[C@H]3C[C@@H]12", "note": "[tetracycline, Tetracycline]", "values": [{"measurement": "binding affinity to bone", "result": "strong binding affinity to bone"}]}
